# Values of other authors, collected in US20060084134A1, “Direct ethanol metabolite ethyl sulfate as an useful diagnostic and therapeutic marker of alcohol consumption” (priority 2004, published 2006).
# For at least one compound, name, drawing or mass did not settle the structure.
# Settings: cited from earlier work
compound,measurement,value
"CCO[C@@H]1O[C@H](C(=O)O)[C@@H](O)[C@H](O)[C@H]1O [EtG, ethyl glucuronide]",stability (in words),stable
